Experimental data as given in article PMC4941268.
These are yes or no findings as the source states them, for the method shown. Binding seen in cells or lysates may run through a third protein. Binding calls can cover weak binding; strength is not graded here. Tags and fused reporters may be left off the sequences shown.

Protein sequences, listed by entry. Tags and fused reporters are not part of them. Lines headed by an entry give the natural chain unless they say otherwise; changes in a name come on top.
UniProt P02545: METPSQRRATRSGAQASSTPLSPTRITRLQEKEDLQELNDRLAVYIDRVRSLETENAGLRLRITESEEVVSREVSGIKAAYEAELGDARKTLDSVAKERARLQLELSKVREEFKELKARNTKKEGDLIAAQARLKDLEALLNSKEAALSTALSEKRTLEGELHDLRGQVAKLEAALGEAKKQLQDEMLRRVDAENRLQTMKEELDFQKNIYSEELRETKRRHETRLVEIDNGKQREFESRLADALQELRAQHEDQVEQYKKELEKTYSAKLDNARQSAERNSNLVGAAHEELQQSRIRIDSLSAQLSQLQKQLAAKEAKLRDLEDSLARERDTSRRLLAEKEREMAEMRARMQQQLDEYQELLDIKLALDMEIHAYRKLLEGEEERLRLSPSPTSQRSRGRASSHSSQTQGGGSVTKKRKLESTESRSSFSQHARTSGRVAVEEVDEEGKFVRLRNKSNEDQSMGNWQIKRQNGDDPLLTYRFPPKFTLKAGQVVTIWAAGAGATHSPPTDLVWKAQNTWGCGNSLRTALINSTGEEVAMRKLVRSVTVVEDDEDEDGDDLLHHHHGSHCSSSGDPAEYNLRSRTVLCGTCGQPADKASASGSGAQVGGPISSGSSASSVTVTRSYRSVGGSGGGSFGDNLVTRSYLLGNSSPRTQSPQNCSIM

Target: FLAG-tagged progerin (FLAG-LA-Δ50) (UniProt P02545)
Test: co-IP; anti-FLAG immunoprecipitation from cotransfected HEK293 cells (FLAG-lamin A constructs with GFP-BAF constructs), 24 h after transfection; lysis in 50 mM TRIS-HCl pH 8.0, 150 mM NaCl, 1% NP40, 0.1% SDS; antibody overnight at 4°C, protein A/G; blots for FLAG and GFP

| binding | Binder |
| --- | --- |
| binds | GFP-tagged wild type BAF (BAF-WT) (protein, UniProt O75531 1-89) MTTSQKHRDFVAEPMGEKPVGSLAGIGEVLGKKLEERGFDKAYVVLGQFLVLKKDEDLFREWLKDTCGANAKQSRDCFGCLREWCDAFL |
| no binding | GFP-tagged BAF mutant BAF-G47E (protein, UniProt O75531 1-89) MTTSQKHRDFVAEPMGEKPVGSLAGIGEVLGKKLEERGFDKAYVVLEQFLVLKKDEDLFREWLKDTCGANAKQSRDCFGCLREWCDAFL |
